This is one part of the list.
Assays:
Assay in all cases: log2 fold change, soluble protein after heating vs DMSO (PISA); higher = thermal stabilisation; K562 cells, 10 uM, 30 min; active = over 0.2 and 3.5 SD of the protein, either way, in both replicates (recomputed)
ZNF593 = ZNF593 (UniProt O00488)
In short: (§1)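 K562 cells at 2×10^6 cells/mL were given 10 μM compound for 30 min. Aliquots then went through 3 min of heating across 48°C-58°C, were pooled, and were extracted in PBS with 0.5% NP-40 at 4°C, and the supernatant after 21,000xg for 90 min was quantified by TMTpro 16plex LC-MS/MS with channel sums equalised. Thermal stability relative to control samples, from duplicates, is given as log2 fold change.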

Protein sequences, listed by entry. Tags and fused reporters are not part of them. Lines headed by an entry give the natural chain unless they say otherwise; changes in a name come on top.
UniProt O00488: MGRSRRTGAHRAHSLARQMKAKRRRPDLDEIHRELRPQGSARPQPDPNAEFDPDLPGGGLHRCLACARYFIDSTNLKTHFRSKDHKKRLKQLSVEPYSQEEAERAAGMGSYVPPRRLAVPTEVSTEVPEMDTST
UniProt Q86UK7: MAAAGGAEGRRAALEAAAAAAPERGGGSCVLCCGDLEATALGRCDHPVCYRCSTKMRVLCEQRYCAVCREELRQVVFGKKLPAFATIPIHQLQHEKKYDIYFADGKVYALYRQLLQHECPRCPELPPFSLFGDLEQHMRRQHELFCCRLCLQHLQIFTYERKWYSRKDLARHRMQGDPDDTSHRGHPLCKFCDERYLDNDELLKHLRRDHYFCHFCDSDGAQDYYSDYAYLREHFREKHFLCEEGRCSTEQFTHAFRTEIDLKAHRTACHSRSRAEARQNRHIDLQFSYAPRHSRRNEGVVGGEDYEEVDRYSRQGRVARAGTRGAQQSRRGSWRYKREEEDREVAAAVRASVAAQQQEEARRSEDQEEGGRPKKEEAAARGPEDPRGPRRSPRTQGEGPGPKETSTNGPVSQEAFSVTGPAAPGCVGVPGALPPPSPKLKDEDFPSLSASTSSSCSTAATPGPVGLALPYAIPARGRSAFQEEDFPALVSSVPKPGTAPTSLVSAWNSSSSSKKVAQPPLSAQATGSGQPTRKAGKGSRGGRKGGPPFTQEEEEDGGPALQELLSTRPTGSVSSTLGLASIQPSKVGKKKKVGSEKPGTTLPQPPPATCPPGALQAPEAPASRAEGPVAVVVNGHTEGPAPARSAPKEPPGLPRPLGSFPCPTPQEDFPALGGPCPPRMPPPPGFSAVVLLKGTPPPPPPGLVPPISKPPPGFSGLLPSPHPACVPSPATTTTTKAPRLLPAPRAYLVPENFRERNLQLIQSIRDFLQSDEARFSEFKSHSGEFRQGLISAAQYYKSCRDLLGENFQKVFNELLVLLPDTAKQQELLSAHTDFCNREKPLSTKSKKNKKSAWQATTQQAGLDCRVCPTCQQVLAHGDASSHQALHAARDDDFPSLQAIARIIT
UniProt Q9UEG4: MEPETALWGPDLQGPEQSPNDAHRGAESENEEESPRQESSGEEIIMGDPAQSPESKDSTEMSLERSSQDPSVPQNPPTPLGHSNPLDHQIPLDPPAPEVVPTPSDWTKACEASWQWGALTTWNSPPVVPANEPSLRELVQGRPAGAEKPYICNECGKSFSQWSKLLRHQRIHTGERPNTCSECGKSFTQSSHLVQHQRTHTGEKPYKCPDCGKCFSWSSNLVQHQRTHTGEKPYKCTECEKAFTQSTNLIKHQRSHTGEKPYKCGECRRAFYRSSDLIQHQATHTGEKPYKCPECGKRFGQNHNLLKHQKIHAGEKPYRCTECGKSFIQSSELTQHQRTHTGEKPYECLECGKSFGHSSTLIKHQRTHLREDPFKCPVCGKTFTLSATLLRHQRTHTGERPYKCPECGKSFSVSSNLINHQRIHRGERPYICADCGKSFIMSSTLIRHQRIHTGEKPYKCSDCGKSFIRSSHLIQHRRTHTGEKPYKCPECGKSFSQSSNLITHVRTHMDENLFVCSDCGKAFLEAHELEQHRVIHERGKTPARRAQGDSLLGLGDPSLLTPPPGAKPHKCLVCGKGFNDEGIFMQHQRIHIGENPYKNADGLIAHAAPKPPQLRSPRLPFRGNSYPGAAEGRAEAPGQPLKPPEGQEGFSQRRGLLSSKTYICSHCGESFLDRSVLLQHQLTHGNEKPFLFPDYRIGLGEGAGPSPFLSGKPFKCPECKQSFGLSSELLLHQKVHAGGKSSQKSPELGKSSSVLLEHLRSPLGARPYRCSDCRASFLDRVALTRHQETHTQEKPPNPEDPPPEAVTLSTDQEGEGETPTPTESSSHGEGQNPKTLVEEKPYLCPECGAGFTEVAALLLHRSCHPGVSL
UniProt Q499Z4: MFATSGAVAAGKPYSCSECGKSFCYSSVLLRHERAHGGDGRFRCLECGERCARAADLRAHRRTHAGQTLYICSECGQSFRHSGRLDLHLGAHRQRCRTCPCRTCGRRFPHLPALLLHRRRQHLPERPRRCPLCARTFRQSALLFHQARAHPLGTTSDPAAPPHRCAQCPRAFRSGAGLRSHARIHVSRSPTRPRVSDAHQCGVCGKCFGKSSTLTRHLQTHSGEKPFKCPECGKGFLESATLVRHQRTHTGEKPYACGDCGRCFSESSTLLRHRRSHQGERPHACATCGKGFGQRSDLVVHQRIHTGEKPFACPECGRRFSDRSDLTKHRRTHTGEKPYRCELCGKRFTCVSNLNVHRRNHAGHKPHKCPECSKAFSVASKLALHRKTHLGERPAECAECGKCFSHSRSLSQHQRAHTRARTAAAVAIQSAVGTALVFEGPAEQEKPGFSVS
UniProt Q5VV52: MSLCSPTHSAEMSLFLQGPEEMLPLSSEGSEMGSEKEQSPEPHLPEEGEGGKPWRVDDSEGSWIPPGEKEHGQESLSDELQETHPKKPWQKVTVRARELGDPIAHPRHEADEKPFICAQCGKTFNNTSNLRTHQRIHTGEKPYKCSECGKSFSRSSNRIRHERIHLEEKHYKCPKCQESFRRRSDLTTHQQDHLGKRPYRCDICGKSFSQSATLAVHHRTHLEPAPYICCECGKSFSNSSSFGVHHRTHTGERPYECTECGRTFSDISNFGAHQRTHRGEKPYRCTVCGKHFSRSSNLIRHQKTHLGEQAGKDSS
UniProt Q9Y5V0: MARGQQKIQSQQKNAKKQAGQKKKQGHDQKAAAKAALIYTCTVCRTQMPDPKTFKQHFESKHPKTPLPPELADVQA
UniProt Q9H5H4: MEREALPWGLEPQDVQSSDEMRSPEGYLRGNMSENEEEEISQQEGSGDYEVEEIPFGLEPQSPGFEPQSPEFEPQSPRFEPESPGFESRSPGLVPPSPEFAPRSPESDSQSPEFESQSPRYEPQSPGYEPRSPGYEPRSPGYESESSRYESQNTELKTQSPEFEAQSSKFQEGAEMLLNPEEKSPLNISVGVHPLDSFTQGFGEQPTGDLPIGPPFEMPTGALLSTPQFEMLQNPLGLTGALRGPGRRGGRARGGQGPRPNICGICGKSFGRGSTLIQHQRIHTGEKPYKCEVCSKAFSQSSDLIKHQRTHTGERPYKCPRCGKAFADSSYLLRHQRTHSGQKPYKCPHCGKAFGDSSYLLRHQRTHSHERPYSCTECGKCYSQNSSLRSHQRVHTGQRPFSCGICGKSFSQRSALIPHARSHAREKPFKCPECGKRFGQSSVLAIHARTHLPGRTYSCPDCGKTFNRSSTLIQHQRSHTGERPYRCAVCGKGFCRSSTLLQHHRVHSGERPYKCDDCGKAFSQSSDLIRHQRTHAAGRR
UniProt Q8NDX6: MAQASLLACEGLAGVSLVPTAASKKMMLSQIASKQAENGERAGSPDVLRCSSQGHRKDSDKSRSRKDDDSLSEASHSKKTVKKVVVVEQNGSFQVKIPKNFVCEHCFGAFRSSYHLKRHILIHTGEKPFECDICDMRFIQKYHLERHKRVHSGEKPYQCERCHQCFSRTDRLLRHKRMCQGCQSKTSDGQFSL
UniProt O15014: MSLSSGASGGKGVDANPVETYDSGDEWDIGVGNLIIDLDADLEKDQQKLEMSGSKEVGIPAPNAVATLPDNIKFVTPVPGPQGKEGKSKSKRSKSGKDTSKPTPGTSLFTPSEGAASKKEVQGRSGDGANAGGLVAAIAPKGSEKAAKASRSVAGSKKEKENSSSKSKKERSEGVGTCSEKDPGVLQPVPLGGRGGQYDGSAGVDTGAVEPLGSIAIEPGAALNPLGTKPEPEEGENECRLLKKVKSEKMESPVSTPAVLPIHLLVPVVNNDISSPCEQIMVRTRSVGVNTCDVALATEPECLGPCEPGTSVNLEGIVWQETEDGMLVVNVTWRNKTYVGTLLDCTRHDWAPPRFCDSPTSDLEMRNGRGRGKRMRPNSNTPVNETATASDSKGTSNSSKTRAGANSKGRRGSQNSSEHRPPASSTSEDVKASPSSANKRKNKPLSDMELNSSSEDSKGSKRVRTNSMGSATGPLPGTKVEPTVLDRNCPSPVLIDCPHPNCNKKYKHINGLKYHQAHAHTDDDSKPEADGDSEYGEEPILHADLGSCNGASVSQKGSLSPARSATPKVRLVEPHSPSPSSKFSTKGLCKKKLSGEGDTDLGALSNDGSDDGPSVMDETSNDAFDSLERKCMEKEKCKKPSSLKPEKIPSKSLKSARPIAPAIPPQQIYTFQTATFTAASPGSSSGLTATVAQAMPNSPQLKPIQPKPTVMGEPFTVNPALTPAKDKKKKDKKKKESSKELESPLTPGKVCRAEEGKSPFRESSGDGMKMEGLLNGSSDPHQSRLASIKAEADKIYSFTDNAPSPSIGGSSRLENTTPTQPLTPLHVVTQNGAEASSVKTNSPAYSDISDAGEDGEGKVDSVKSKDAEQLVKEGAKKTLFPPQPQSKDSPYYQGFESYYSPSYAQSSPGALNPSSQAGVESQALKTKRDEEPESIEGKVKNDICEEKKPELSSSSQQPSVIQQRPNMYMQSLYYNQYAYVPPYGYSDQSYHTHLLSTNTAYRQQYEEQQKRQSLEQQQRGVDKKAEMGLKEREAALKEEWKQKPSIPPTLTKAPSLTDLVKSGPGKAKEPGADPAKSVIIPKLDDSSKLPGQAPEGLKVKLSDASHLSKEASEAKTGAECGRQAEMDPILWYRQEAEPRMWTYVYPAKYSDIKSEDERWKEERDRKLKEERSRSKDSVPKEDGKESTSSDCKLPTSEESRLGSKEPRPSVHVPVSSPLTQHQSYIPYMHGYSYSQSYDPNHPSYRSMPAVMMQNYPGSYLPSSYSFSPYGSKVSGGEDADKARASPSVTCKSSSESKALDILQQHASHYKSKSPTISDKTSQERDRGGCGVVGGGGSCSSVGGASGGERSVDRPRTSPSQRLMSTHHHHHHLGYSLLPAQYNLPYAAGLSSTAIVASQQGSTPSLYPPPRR
UniProt Q969S3: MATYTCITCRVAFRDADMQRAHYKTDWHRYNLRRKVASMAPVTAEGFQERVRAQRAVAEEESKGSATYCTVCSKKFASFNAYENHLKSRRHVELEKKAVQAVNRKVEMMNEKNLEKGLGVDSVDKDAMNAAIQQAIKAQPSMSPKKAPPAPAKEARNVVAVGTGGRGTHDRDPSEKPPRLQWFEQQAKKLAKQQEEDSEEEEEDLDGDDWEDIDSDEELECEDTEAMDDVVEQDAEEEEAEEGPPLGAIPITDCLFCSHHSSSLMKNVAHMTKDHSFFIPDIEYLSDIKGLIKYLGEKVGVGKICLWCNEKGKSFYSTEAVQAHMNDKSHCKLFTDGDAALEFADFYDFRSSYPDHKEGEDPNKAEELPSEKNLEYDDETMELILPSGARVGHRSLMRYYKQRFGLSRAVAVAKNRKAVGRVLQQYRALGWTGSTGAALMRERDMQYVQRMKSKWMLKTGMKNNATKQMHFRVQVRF
UniProt Q96BR6: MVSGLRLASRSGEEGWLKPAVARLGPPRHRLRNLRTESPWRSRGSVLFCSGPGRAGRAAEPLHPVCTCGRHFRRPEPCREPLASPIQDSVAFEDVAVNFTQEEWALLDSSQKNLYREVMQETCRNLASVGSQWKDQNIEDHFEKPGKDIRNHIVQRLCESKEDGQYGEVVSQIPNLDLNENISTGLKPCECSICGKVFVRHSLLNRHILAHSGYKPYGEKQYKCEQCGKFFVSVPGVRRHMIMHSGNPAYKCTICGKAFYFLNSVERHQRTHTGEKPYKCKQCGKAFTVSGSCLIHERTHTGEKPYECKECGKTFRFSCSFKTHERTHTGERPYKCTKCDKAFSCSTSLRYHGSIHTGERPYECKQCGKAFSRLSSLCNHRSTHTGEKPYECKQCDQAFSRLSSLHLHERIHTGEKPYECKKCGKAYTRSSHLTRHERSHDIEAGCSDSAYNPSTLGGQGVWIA
UniProt P0C7X2: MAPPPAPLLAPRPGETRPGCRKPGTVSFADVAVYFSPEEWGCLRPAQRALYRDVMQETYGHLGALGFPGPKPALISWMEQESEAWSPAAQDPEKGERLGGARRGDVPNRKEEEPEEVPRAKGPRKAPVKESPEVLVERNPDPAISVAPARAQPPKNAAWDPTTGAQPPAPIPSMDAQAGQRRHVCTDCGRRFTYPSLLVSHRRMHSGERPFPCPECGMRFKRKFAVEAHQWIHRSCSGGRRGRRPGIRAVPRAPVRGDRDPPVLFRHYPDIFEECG
UniProt Q9UID6: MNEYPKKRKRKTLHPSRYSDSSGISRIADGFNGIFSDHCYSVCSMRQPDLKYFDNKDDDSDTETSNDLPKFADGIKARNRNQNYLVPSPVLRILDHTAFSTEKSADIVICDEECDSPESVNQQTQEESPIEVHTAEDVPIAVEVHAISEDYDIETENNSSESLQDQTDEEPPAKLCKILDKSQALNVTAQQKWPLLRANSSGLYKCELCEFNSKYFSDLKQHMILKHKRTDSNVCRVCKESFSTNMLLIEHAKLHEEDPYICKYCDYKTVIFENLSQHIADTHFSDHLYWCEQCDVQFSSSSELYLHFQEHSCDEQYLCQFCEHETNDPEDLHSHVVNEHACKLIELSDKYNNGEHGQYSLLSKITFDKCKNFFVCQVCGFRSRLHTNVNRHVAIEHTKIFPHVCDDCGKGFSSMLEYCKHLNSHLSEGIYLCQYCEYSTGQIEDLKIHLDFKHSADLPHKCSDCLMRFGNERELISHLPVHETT

ZNF598 = ZNF598 (UniProt Q86UK7)
In short: as §1

ZNF618 [1] = target: ZNF618 (UniProt Q5T7W0)
In short: as §1

ZNF618 isoform 2 = ZNF618 isoform 2 (UniProt Q5T7W0)
In short: as §1

ZNF629 = ZNF629 (UniProt Q9UEG4)
In short: as §1

ZNF638 = ZNF638 (UniProt Q14966)
In short: as §1

ZNF672 = ZNF672 (UniProt Q499Z4)
In short: as §1

ZNF691 = ZNF691 (UniProt Q5VV52)
In short: as §1

ZNF706 = ZNF706 (UniProt Q9Y5V0)
In short: as §1

ZNF768 = ZNF768 (UniProt Q9H5H4)
In short: as §1

ZNF618 [2] = target: ZNF618 (UniProt B1ALC2)
In short: as §1

ZNF74 isoform 5 = ZNF74 isoform 5 (UniProt Q16587)
In short: as §1

ZNF740 = ZNF740 (UniProt Q8NDX6)
In short: as §1

ZNF609 = ZNF609 (UniProt O15014)
In short: as §1

ZNF622 = ZNF622 (UniProt Q969S3)
In short: as §1

ZNF669 = ZNF669 (UniProt Q96BR6)
In short: as §1

ZNF688 = ZNF688 (UniProt P0C7X2)
In short: as §1

ZNF639 = ZNF639 (UniProt Q9UID6)
In short: as §1

Measured: log2 fold change

C[C@H](Nc1ncnc2nc[nH]c12)c1cc2cccc(Cl)c2c(=O)n1-c1ccccc1 [duvelisib]
inactive: ZNF593 = -0.17 | ZNF598 = -0.054 | ZNF618 [1] -0.067 | ZNF618 isoform 2 = -0.018 | ZNF629 = -0.097 | ZNF638 = -0.086 | ZNF672 = -0.15 | ZNF691 = 0.055 | ZNF706 = -0.047 | ZNF768 = -0.077

CC1=C(C(=O)Nc2cc3cn[nH]c3cc2F)C(c2ccc(C(F)(F)F)cc2)CC(=O)N1 (stereo not drawn)
inactive: ZNF593 = 0.053 | ZNF598 = 0.006 | ZNF618 [2] -0.083 | ZNF618 [1] 0.026 | ZNF629 = 0.04 | ZNF672 = -0.084 | ZNF691 = -0.061 | ZNF706 = 0.021 | ZNF74 isoform 5 = 0.004 | ZNF740 = 0.043 | ZNF768 = 0.022

CCCS(=O)(=O)Nc1ccc(F)c(C(=O)c2c[nH]c3ncc(Cl)cc23)c1F
inactive: ZNF593 = -0.201 | ZNF598 = 0.07 | ZNF609 = 0.036 | ZNF618 [1] -0.001 | ZNF618 isoform 2 = 0.033 | ZNF622 = 0.023 | ZNF629 = -0.114 | ZNF669 = 0.08 | ZNF688 = -0.061 | ZNF691 = -0.018 | ZNF706 = -0.038 | ZNF74 isoform 5 = -0.093 | ZNF740 = 0.006 | ZNF768 = -0.132

CC(C)(C)Cn1c(N)nc2ccc(-c3[nH]c(C(C)(C)C)nc3-c3ccc(F)cc3)nc21 [ralimetinib]
inactive: ZNF593 = 0.11 | ZNF598 = 0.126 | ZNF609 = -0.053 | ZNF618 [1] 0.044 | ZNF618 isoform 2 = -0.001 | ZNF622 = -0.019 | ZNF629 = 0.103 | ZNF638 = 0.046 | ZNF672 = 0.056 | ZNF691 = -0.091 | ZNF706 = 0.002 | ZNF740 = 0.026 | ZNF768 = 0.116

COc1cc(C(=O)O)ccc1NC(=O)[C@@H]1N[C@@H](CC(C)(C)C)[C@](C#N)(c2ccc(Cl)cc2F)[C@H]1c1cccc(Cl)c1F [idasanutlin]
inactive: ZNF593 = 0.134 | ZNF598 = 0.08 | ZNF609 = 0.021 | ZNF618 [1] 0.015 | ZNF622 = -0.031 | ZNF629 = 0.219 | ZNF638 = 0.093 | ZNF639 = 0.098 | ZNF669 = 0.131 | ZNF672 = -0.072 | ZNF691 = 0.141 | ZNF706 = 0.068 | ZNF740 = 0.02 | ZNF768 = 0.162

CCn1c(C(=O)N(C2CC2)C2CC2)cc2c3c(ncn3C)c(Nc3cc(C)n(C)n3)nc21
inactive: ZNF593 = 0.035 | ZNF598 = -0.086 | ZNF618 [1] -0.068 | ZNF618 isoform 2 = -0.301 | ZNF629 = -0.284 | ZNF638 = 0.019 | ZNF672 = 0.038 | ZNF691 = -0.026 | ZNF706 = 0.016 | ZNF74 isoform 5 = 0.046 | ZNF768 = -0.058

Oc1cc(-c2nc(-c3ccccc3)[nH]c2-c2ccncc2)ccc1Cl
inactive: ZNF593 = -0.138 | ZNF598 = 0.087 | ZNF609 = 0.01 | ZNF618 [1] 0.011 | ZNF618 isoform 2 = -0.181 | ZNF622 = 0.016 | ZNF629 = -0.179 | ZNF638 = -0.025 | ZNF672 = -0.021 | ZNF691 = 0.137 | ZNF706 = 0.02 | ZNF740 = -0.118 | ZNF768 = -0.073

CNC(=O)c1ccccc1Nc1nc(Nc2ccc(N3CCOCC3)cc2OC)ncc1Cl
inactive: ZNF593 = 0.127 | ZNF598 = -0.006 | ZNF609 = -0.057 | ZNF618 [1] -0.046 | ZNF618 isoform 2 = 0.276 | ZNF622 = 0.045 | ZNF629 = 0.023 | ZNF638 = -0.095 | ZNF672 = -0.12 | ZNF691 = -0.02 | ZNF706 = -0.019 | ZNF74 isoform 5 = -0.174 | ZNF768 = 0.003

Cc1cc(Nc2cc(N3CCN(C)CC3)nc(Sc3ccc(NC(=O)C4CC4)cc3)n2)n[nH]1 [tozasertib]
inactive: ZNF593 = 0.055 | ZNF598 = -0.036 | ZNF618 [1] -0.049 | ZNF618 isoform 2 = 0.006 | ZNF629 = 0.02 | ZNF638 = -0.027 | ZNF639 = 0 | ZNF672 = -0.042 | ZNF691 = 0.043 | ZNF706 = -0.02 | ZNF768 = 0.007

CN(CCOc1ccc(C[C@@H]2SC(=O)NC2=O)cc1)c1ccccn1 (racemic) [rosiglitazone]
inactive: ZNF593 = -0.044 | ZNF598 = 0.065 | ZNF618 [2] 0.122 | ZNF618 [1] 0.002 | ZNF618 isoform 2 = 0.131 | ZNF629 = -0.049 | ZNF638 = 0.039 | ZNF672 = -0.034 | ZNF691 = -0.064 | ZNF706 = 0.007 | ZNF74 isoform 5 = -0.026 | ZNF740 = 0.158 | ZNF768 = -0.122

c1cn2cc(-c3ccc4cn[nH]c4c3)nc(Nc3ccc(N4CCOCC4)cc3)c2n1 [entospletinib]
inactive: ZNF593 = 0.071 | ZNF598 = -0.024 | ZNF618 [1] -0.01 | ZNF618 isoform 2 = 0.072 | ZNF629 = 0.17 | ZNF638 = -0.023 | ZNF639 = 0.061 | ZNF672 = -0.044 | ZNF691 = -0.03 | ZNF706 = 0.02 | ZNF74 isoform 5 = -0.081 | ZNF740 = -0.03 | ZNF768 = 0.151

Cc1nc(Nc2ncc(C(=O)Nc3c(C)cccc3Cl)s2)cc(N2CCN(CCO)CC2)n1 [dasatinib]
inactive: ZNF593 = 0.105 | ZNF598 = -0.178 | ZNF609 = 0 | ZNF618 [1] 0.031 | ZNF618 isoform 2 = -0.258 | ZNF622 = 0.012 | ZNF629 = 0.071 | ZNF638 = 0.245 | ZNF672 = -0.111 | ZNF691 = 0.004 | ZNF706 = 0.078 | ZNF768 = 0.086
